Measurements from paper PMC6525254.
Results are given in words; binding and its absence hold for the method and conditions named. In cells and extracts the contact can be indirect. Some entries that bind do so weakly or less than the wild type.

Chains of the proteins cited; added tags and fusions are not shown. Lines headed by an entry give the natural chain unless they say otherwise; changes in a name come on top. A line that says so, or that is headed by a name, gives the form on record, which may keep a tag or linker.
paxillin (human (endogenous in HASM cells)) (P49023, form named): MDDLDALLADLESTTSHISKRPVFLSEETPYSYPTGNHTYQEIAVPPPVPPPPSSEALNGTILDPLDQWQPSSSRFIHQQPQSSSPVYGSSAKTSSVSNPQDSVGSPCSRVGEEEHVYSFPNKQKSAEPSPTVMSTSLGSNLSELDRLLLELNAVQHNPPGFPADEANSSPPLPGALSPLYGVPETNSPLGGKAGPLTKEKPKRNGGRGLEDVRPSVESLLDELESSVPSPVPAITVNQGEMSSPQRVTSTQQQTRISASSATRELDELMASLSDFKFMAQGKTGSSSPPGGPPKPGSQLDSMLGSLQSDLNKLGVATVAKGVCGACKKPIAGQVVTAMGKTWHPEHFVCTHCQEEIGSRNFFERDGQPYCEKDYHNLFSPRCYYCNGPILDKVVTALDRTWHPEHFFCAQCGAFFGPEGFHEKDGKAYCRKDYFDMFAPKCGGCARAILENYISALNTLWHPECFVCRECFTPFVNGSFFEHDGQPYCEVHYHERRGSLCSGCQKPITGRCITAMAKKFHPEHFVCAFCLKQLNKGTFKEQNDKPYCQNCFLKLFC
UniProt P53350: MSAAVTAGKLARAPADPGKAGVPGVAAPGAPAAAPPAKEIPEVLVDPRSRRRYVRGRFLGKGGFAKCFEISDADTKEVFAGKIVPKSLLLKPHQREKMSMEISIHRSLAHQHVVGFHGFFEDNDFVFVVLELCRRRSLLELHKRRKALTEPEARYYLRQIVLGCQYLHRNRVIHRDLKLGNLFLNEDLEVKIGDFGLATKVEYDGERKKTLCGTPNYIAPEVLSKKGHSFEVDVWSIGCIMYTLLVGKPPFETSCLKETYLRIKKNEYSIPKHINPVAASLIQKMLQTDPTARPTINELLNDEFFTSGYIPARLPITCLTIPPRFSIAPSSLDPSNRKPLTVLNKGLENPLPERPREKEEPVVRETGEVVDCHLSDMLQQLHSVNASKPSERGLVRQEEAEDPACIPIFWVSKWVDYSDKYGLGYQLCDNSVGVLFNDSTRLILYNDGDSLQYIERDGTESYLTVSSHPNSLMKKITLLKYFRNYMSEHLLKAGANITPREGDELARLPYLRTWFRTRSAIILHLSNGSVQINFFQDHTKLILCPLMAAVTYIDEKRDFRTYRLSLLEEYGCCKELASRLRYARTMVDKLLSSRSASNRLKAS

Biological target: paxillin (human (endogenous in HASM cells)) (UniProt P49023)
Test: co-IP; HASM cell extracts immunoprecipitated with paxillin antibody; membranes blotted for paxillin, stripped and reblotted for Plk1

binding: binds
Substance: polo-like protein kinase 1 (Plk1) (from UniProt P53350 1-603)
